Experimental data reported in patent US20220025060A1.
Results are given in words; binding and its absence hold for the method and conditions named. Some results given as binding are weak or reduced against the parent protein; the word gives no strength.

Protein sequences, listed by entry. Tags and fused reporters are not part of them. Residues count along the entry.
UniProt P25942, residues 21-193: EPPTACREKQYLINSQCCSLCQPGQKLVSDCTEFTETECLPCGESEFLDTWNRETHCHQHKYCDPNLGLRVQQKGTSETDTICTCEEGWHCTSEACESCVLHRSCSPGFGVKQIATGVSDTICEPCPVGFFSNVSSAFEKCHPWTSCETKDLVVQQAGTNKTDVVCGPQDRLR

Target: His-tagged human CD40 (h-CD40-his) recombinant protein (human) (UniProt P25942)
Test: ELISA

| binding | Binder |
| --- | --- |
| binds | humanized antibody hu9E5 (H1c heavy chain, L1a light chain) (antibody, human IgG1, kappa, V domains shown) VH: QVQLVQSGAEVKKPGASVKVSCKASGYILTTYWITWVRQAPGQGLEWMGDIHPGSGSTKYNEKFKSRVTLTVDTSISTAYMELSRLRSEDTAVYYCARRDYWGQGTTVTVSS VL: DIVMTQSPLSLPVTPGEPASISCRSSQNIVNSQGNTYLEWYLQKPGQSPQLLIYKVTNRFSGVPDRFSGSGSGTDFTLKISRVEAEDVGVYYCFQASLVPWTFGGGTKVEIKR |
| binds | humanized antibody hu2H6 (H1b heavy chain, L1c light chain) (antibody, human IgG1, kappa, V domains shown) VH: QVQLVQSGAEVKKPGSSVKVSCKASGYAFSDYLIEWVRQAPGQGLEWMGVINPGSGGSNYNEKIKDRVTLTADKSTSTAYMELSSLRSEDTAVYYCARGGGGFTYWGQGTLVTVSS VL: DIQLTQSPSSLSASVGDRVTITCRASQDISNYLNWYQQKPGKTIKLLLNFASRLHSGVPSRFSGSGSGTDFTFTISSLQPEDIATYYCQQGSTLPWTFGGGTKVEIKR |
